## Results of single-concentration screens

Sequences of proteins named here, by UniProt entry; tags and fusion partners are left off. Residues count along the entry.
UniProt P9WFT3, whole entry: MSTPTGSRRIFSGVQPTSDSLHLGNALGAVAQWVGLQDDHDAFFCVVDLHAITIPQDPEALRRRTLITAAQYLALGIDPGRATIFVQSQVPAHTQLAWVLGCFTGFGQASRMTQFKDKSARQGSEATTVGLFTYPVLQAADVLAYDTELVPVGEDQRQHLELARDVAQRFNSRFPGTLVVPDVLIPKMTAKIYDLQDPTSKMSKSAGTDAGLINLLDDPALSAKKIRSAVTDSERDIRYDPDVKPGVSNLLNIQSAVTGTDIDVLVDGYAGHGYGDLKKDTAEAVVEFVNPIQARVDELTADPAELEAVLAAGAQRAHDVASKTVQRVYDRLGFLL
UniProt P9WPC5, whole entry: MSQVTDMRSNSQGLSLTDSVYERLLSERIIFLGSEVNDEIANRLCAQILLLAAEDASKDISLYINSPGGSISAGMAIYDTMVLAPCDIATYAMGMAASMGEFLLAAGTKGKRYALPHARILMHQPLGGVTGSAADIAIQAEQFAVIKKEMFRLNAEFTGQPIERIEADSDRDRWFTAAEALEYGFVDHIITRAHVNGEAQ
UniProt P9WPC3, whole entry partner: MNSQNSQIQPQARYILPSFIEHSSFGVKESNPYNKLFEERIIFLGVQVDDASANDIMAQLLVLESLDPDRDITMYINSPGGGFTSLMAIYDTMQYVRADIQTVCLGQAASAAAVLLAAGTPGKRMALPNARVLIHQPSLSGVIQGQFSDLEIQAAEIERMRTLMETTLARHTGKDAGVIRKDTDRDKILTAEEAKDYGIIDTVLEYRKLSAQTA
UniProt I6X8D2, whole entry: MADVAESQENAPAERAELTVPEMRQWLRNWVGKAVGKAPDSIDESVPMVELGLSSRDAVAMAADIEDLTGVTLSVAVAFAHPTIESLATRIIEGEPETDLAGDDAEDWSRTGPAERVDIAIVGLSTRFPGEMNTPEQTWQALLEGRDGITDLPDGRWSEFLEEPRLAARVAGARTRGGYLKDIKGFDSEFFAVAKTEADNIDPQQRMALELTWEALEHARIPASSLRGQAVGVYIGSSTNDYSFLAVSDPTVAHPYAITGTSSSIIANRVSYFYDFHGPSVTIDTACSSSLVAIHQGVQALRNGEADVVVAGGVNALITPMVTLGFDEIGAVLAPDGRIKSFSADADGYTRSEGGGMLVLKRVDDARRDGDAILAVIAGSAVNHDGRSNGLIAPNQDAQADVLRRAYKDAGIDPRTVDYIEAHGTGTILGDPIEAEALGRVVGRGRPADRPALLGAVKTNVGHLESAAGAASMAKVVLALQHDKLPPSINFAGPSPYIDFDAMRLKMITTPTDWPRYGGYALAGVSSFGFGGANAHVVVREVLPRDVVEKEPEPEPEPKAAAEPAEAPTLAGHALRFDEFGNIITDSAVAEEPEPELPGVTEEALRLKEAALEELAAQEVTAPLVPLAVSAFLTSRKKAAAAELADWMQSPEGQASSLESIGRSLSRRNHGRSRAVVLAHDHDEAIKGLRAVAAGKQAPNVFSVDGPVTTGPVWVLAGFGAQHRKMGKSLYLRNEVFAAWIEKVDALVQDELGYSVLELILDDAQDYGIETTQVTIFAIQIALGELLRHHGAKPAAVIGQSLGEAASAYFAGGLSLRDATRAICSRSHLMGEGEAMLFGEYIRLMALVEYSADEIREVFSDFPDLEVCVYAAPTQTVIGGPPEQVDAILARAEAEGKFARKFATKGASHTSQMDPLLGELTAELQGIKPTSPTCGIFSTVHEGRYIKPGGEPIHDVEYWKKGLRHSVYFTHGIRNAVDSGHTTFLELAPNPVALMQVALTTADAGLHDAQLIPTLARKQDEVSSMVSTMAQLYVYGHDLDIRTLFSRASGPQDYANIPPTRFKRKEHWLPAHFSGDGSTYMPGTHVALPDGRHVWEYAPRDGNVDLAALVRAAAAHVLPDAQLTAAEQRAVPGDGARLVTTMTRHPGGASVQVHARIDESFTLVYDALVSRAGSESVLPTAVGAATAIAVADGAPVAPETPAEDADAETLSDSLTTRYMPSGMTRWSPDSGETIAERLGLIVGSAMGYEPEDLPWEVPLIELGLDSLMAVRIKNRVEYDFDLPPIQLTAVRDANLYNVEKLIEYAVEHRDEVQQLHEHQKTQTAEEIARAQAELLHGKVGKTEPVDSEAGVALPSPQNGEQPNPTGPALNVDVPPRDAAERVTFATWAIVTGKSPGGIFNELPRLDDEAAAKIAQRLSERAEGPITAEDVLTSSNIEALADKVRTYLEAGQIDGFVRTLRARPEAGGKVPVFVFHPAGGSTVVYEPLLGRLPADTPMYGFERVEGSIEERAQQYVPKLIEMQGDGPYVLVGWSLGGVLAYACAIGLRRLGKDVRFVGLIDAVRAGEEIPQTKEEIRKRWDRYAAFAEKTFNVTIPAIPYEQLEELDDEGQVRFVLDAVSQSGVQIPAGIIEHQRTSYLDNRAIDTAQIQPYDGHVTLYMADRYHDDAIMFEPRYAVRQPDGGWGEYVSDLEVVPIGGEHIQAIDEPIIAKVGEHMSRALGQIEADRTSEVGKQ
UniProt Q8IDJ8, 1-583: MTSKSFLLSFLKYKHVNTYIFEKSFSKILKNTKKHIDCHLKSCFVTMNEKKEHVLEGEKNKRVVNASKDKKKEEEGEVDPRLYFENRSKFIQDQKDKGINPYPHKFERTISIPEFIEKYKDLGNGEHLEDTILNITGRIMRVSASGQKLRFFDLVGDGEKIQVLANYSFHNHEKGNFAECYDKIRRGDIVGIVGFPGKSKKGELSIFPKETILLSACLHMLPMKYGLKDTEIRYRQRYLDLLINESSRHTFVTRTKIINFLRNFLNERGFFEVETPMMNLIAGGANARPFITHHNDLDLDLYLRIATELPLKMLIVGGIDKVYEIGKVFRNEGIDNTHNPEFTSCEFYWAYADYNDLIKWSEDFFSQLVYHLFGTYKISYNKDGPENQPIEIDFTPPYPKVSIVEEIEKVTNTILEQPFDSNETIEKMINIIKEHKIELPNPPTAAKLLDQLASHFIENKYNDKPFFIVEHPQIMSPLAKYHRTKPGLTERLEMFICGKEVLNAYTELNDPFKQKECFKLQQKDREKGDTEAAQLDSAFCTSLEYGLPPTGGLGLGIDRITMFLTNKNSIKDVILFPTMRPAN

Source: ChEMBL document CHEMBL3988442, “University of Dundee, Small-Polar-MMV Screening Library” (2021).

MtTrpRS: 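Enzyme assay of tryptophanyl-tRNA synthetase; the read-out is not stated. Target: Tryptophan-tRNA ligase, Mycobacterium tuberculosis (UniProt P9WFT3). Tested at 10 µM. Direction is not recorded; retested compounds ran higher, which suggests that high means inhibition. About 65,000 compounds were tested under these conditions; 0.098% (about 64) showed 50% or more at least once.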
ClpP1P2: 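ClpP1P2, Mycobacterium tuberculosis (UniProt P9WPC5 and UniProt P9WPC3). Protease assay of ClpP1P2, read by the AMC dye that it sets free. Concentration: 50 µM. Higher reads as stronger inhibition, judged from the few compounds that gave an IC50. Most other retested compounds had strongly negative values. Size under these conditions: about 69,000 compounds, about 10 of them at 50% or above in at least one test.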
Pks13 thioesterase: 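Polyketide synthase Pks13, Mycobacterium tuberculosis (UniProt I6X8D2). Enzyme assay of the thioesterase domain of polyketide synthase 13; the read-out is not stated. Concentration: 30 µM. The record gives no direction; the compounds picked for IC50 retests had high values, so higher reads as stronger inhibition. About 67,000 compounds were tested under these conditions; 0.46% (about 300) showed 50% or more at least once.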
PfKRS1: 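Enzyme assay of the cytosolic lysyl-tRNA synthetase in 384-well plates, read by luminescence. Target: Lysine-tRNA ligase, Plasmodium falciparum 3D7 (UniProt Q8IDJ8). Compounds at 30 µM. Direction is inferred from only a few compounds that gave an IC50; most scored high, so higher reads as stronger inhibition. About 69,000 compounds were tested under these conditions; 0.071% (about 49) showed 50% or more at least once.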

Values are the deposited “Percent Effect”, in %.
The controls that fix the scale are not given in the record; negative values are as filed.
The compounds are a random part of those screened.

With COc1ccc(CN2CCO[C@H]3CN(C4CCC4)CC[C@H]3C2=O)cc1 the screen gave MtTrpRS: -9.455%; ClpP1P2: 1.7%; Pks13 thioesterase: -2.732%; PfKRS1: 0.5241%.
With CCc1nn(C)c(Cl)c1CN(CCOC)Cc1cnn(C)c1 the screen gave MtTrpRS: 2.585%; ClpP1P2: -8.443%; Pks13 thioesterase: -9.521%; PfKRS1: 5.76%.
With CCN1CCCC12CCN(C(=O)c1ccsc1)CC2 the screen gave MtTrpRS: -4.942%; ClpP1P2: -10.62%; Pks13 thioesterase: -3.927%; PfKRS1: 1.484%.
With CCn1ncc2c1C(COC)N(C(=O)c1cccs1)CC2 (centres undefined) the screen gave ClpP1P2: -10.26%; Pks13 thioesterase: -11.98%; PfKRS1: 3.165%.
With CCOc1ccc(C(=O)NS(=O)(=O)c2cncc(Br)c2)cc1OC the screen gave MtTrpRS: 6.115%; ClpP1P2: -15.03%; Pks13 thioesterase: -27.49%; PfKRS1: -1.272%.
With Cc1nsc(NC(=O)NC2CCCOC2)n1 (centres undefined) the screen gave MtTrpRS: -2.763%; ClpP1P2: 2.049%; Pks13 thioesterase: 3.799%; PfKRS1: -1.401%.
With CC[C@@H]1N(Cc2ccncc2)CCC[C@]12CCC(=O)N2C the screen gave MtTrpRS: 0.6634%; ClpP1P2: 10.79%; Pks13 thioesterase: -13.16%; PfKRS1: 6.018%.
With CCSc1cncc(N2CCC(NC(=O)C3CCCCC3)CC2)n1 the screen gave MtTrpRS: -5.128%; ClpP1P2: -26.72%; Pks13 thioesterase: -20.3%; PfKRS1: 7.175%.
With Cc1cnc(CN(C)C2CCN(Cc3nc4ccccc4n3C)C2)o1 (centres undefined) the screen gave MtTrpRS: 3.294%; ClpP1P2: 7.064%; Pks13 thioesterase: -15%; PfKRS1: 0.7776%.
With COCCN1CCC(NCc2cc(F)ccc2F)C1 (centres undefined) the screen gave MtTrpRS: 12.18%; ClpP1P2: -13.61%; Pks13 thioesterase: -8.966%; PfKRS1: 0.5394%.
With Cc1nnc(SCCCNC(=O)Nc2ccc3c(c2)OCO3)s1 the screen gave MtTrpRS: 0%; ClpP1P2: 11.84%; Pks13 thioesterase: 1.965%; PfKRS1: 0.9351%.
With O=C(C1CC=CC1)N1CCC2(CC1)CN(Cc1ccccn1)CCO2 the screen gave MtTrpRS: -2.589%; ClpP1P2: 2.892%; Pks13 thioesterase: -8.432%; PfKRS1: -5.319%.
With O=C(c1ccoc1)N(Cc1cccnc1)C1CC1 the screen gave MtTrpRS: 0.7776%; ClpP1P2: -0.1132%; Pks13 thioesterase: -8.064%; PfKRS1: 3.999%.
With COCC(=O)N1CCCC(c2noc3nc(C)cc(C(F)(F)F)c23)C1 (centres undefined) the screen gave ClpP1P2: -15.04%; Pks13 thioesterase: -2.309%; PfKRS1: -2.548%.
With CC(C)[C@H]1COC(=O)N1CC(=O)N(C)CCCn1cccn1 the screen gave MtTrpRS: 6.495%; ClpP1P2: -3.825%; Pks13 thioesterase: -27.12%; PfKRS1: 1.943%.
With CNC(=O)CN(C)c1nc(-c2ccc(C(N)=O)cc2)nc2c1CCNC2 the screen gave MtTrpRS: -5.012%; ClpP1P2: -4.248%; Pks13 thioesterase: -3.922%; PfKRS1: -1.211%.
With Cc1ncsc1CN1CCn2c(COc3cccnc3)cnc2C1C (centres undefined) the screen gave MtTrpRS: 4.328%; ClpP1P2: -9.368%; Pks13 thioesterase: 5.694%; PfKRS1: 4.152%.
With Cc1cc(S(=O)(=O)N2CCc3ccc(F)cc32)cc(C(=O)O)c1C the screen gave MtTrpRS: 1.098%; ClpP1P2: -5.149%; Pks13 thioesterase: -0.132%; PfKRS1: 8.195%.
With Cc1cncc(C(=O)N2CCCCC2c2nc[nH]n2)c1 (centres undefined) the screen gave MtTrpRS: -0.7452%; ClpP1P2: 1.05%; Pks13 thioesterase: -25.49%; PfKRS1: -0.6417%.
With COc1ccc(NC(=O)CN2CCS(=O)(=O)CC2)cn1 the screen gave MtTrpRS: -5.462%; ClpP1P2: 7.801%; Pks13 thioesterase: -11.33%; PfKRS1: -0.4013%.
With CN(Cc1ccnc2ccccc12)C1CCS(=O)(=O)C1 (centres undefined) the screen gave MtTrpRS: -1.795%; ClpP1P2: -8.462%; Pks13 thioesterase: 2.606%; PfKRS1: 1.556%.
With Cc1ccc(N2CCCN(C(=O)c3cc(CC(C)C)n[nH]3)CC2)nn1 the screen gave MtTrpRS: 0.7991%; ClpP1P2: -6.116%; Pks13 thioesterase: -15.67%; PfKRS1: 3.207%.
With CCc1nccn1C1CCCN(C(=O)COCC(F)(F)F)C1 (centres undefined) the screen gave MtTrpRS: 1.56%; ClpP1P2: -17.39%; Pks13 thioesterase: -21.78%; PfKRS1: -0.1201%.
With COc1ccccc1OCCNS(=O)(=O)N1CCOCC1 the screen gave MtTrpRS: -3.613%; ClpP1P2: -6.301%; Pks13 thioesterase: -4.99%; PfKRS1: -0.1877%.
With CC1CCCN(CCNC(=O)c2scnc2Cl)C1 (centres undefined) the screen gave MtTrpRS: -4.42%; ClpP1P2: 0.6568%; Pks13 thioesterase: -16.56%; PfKRS1: 0.463%.
With O=C(C1CC2(CCNCC2)CN1)N1CCN(c2cccc(Cl)c2Cl)CC1 (centres undefined) the screen gave MtTrpRS: 2.235%; ClpP1P2: -16.87%; PfKRS1: 5.123%.
With Cc1cc(OC(F)F)c(C(=O)N2CC[C@H](O)C2)s1 the screen gave MtTrpRS: -2.617%; ClpP1P2: 23.51%; Pks13 thioesterase: -13.09%; PfKRS1: 2.393%.
With CC(=O)N(C)Cc1ccccc1NC(=O)c1ccccc1C the screen gave MtTrpRS: -1.55%; ClpP1P2: 20.53%; Pks13 thioesterase: -10.79%; PfKRS1: 2.058%.

For reference, 4 entries once more:

{"smiles": "CC[C@@H]1N(Cc2ccncc2)CCC[C@]12CCC(=O)N2C", "MtTrpRS": 0.6634, "ClpP1P2": 10.79, "Pks13 thioesterase": -13.16, "PfKRS1": 6.018}
{"smiles": "CN(Cc1ccnc2ccccc12)C1CCS(=O)(=O)C1", "stereo": "centres undefined", "MtTrpRS": -1.795, "ClpP1P2": -8.462, "Pks13 thioesterase": 2.606, "PfKRS1": 1.556}
{"smiles": "CCN1CCCC12CCN(C(=O)c1ccsc1)CC2", "MtTrpRS": -4.942, "ClpP1P2": -10.62, "Pks13 thioesterase": -3.927, "PfKRS1": 1.484}
{"smiles": "CCn1ncc2c1C(COC)N(C(=O)c1cccs1)CC2", "stereo": "centres undefined", "ClpP1P2": -10.26, "Pks13 thioesterase": -11.98, "PfKRS1": 3.165}